These are yes or no findings as the source states them, for the method shown.
Molecular target: PqsL (flavoprotein monooxygenase, wild type) (Pseudomonas aeruginosa) (UniProt Q9HWJ1)
Assay: condition: only at high NaCl concentrations (150 mM NaCl in the methods); SEC; analytical gel filtration, Superdex 200 Increase 10/300 GL, 20 mM tris-HCl pH 8.5, 150 mM NaCl, 12 °C, calibrated with Bio-Rad standard; both purified

binding: no binding
B1: PqsL (flavoprotein monooxygenase, wild type) (enzyme, Pseudomonas aeruginosa)
chain: MTDNHIDVLINGCGIGGAMLAYLLGRQGHRVVVVEQARRERAINGADLLKPAGIRVVEAAGLLAEVTRRGGRVRHELEVYHDGELLRYFNYSSVDARGYFILMPCESLRRLVLEKIDGEATVEMLFETRIEAVQRDERHAIDQVRLNDGRVLRPRVVVGADGIASYVRRRLLDIDVERRPYPSPMLVGTFALAPCVAERNRLYVDSQGGLAYFYPIGFDRARLVVSFPREEARELMADTRGESLRRRLQRFVGDESAEAIAAVTGTSRFKGIPIGYLNLDRYWADNVAMLGDAIHNVHPITGQGMNLAIEDASALADALDLALRDACALEDALAGYQAERFPVNQAIVSYGHALATSLEDRQRFAGVFDTALQGSSRTPEALGGERSYQPVRSPAPLG
notes: PqsL, FAD-dependent monooxygenase of alkyl quinolone N-oxide biosynthesis, Pseudomonas aeruginosa; the crystal models hold residues 3-370; One protomer is written; also called Wild-type PqsL; FPMO PqsL; source: E. coli LMG194 (pHERD30T), purified (Ni-NTA, Resource Q anion exchange)
